# Earlier results, collected in patent US20070122477A1, “Methods and articles for treating 25-hydroxyvitamin D insufficiency and deficiency” (CYTOCHROMA, INC., priority 2005, published 2007).
# Some results were stated once for a whole list of compounds, not compound by compound.
# Biological target: T1, intracellular Vitamin D receptors (VDR) (Homo sapiens, UniProt P11473)
# T1 sequence (P11473 1-427): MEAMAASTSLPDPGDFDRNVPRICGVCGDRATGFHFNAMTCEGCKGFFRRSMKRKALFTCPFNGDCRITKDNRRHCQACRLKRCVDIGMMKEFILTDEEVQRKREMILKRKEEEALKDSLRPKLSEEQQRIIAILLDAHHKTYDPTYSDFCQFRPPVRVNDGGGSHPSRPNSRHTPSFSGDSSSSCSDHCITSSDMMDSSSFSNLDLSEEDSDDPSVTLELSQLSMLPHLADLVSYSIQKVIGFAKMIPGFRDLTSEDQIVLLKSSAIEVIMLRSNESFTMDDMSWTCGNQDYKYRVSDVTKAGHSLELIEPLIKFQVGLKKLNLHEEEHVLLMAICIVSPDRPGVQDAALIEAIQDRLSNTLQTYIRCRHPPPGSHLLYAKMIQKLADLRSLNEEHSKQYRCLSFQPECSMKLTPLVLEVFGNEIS
# Conditions: relative to the Vitamin D hormones; estimated
structure (smiles),measurement,value
C=C1CC[C@H](O)C/C1=C/C=C1\CCC[C@]2(C)[C@@H]([C@H](C)CCCC(C)C)CC[C@@H]12 [Cholecalciferol],"affinity for the VDR, fold lower than those of the Vitamin D hormones",at least 100 fold
